In PubChem BioAssay AID504444 (National Center for Advancing Translational Sciences (NCATS), 2011):
In all, about 360,000 compounds went through this assay and about 7,500 (2.1%) were called active. Inconclusive means that the source gave no clear call. Such entries were picked first, then a sample of the others. The call rests on the fitted dose curve; in most records, active means well fitted inhibition curve with a large enough effect; inconclusive means small, poorly fitted or top-dose-only effect, or effect the other way; inactive means flat fitted curve, though single readings scatter. Potencies of inconclusive entries are doubtful fits and often do not repeat.

Assay: Nrf2 qHTS screen for inhibitors; further: nearly all actives have a fitted effect of over 60% in size
Details: A549 ARE-Fluc reporter, luciferase luminescence, 18-24 h; activity change, negative = inhibition: at 46 µM (top of the series)
In short: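 Cells were seeded and rested 2 h, then exposed to compounds for 18-24 h. CellTiter-Fluor was read first as a viability measure. BugLite was added 15 min before the final luminescent read of ARE-luciferase activity in A549 cells.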
On the % scale 0 is the no-effect control and ±100 the full control effect; potency means the concentration at half of the fitted maximal effect.

SMILES	activity change, negative = inhibition	Potency
COc1cccc(NC(=O)CSCn2nnc3c(=O)[nH]c(Cc4ccc(F)cc4)nc32)c1	inactive: 0.116%	–
CN(Cc1ccc(F)cc1)S(=O)(=O)c1nnc(NC(=O)c2ccc(F)cc2)s1	–	inconclusive: 0.731 µM [falling, full curve, poor fit]
CCOC(=O)c1oc2ccc(S(=O)(=O)Nc3ccc4c(c3)n(C)c(=O)n4C)cc2c1C	–	active: 20.6 µM
CSc1ccc(C(=O)c2[nH]c(=O)[nH]c2C)cc1	inactive: -1.22%	–
COc1ccccc1NC(=O)c1coc(=O)c(Br)c1	–	inconclusive: 18.4 µM [activator, single point]
CCCC(=O)Nc1ccc(C(=O)NNC(=S)NC(=O)c2cccs2)cc1	–	inconclusive: 29.1 µM [falling, single point]
CCCc1ccc(-c2csc(NC(=O)Cc3cccs3)n2)cc1	–	inconclusive: 14.6 µM [falling, partial curve, poor fit]
CCOc1ccc(-c2nn(-c3ccccc3)cc2C2NC(=O)NC(C)=C2C(=O)OC(C)C)cc1C (stereo not given)	–	inconclusive: 18.4 µM [falling, single point]
O=C(Nc1ccc(F)cc1F)c1csc(-c2ccccc2)n1	–	inconclusive: 25.9 µM [activator, partial curve, poor fit]
COc1ccc(/C=C2\SC(=S)N(CCC(=O)NCCCN3CCOCC3)C2=O)cc1	–	inconclusive: 20.6 µM [activator, single point]
C=CC[n+]1c(C)csc1Nc1cccc(Br)c1	–	inconclusive: 23.1 µM [activator, partial curve, poor fit]
CC1CCCCN1c1nc(-c2ccncc2)nc2ccccc12 (stereo not given)	–	inconclusive: 32.6 µM [falling, single point]
CCOc1ccc(NC(=O)CSc2nc(C)cc(C)n2)cc1	–	inconclusive: 5.17 µM [falling, partial curve, poor fit]
Cc1cc(/C=C2\Sc3ccccc3N2C)cc(C)[n+]1CC1CCCO1 (stereo not given)	–	active: 1.16 µM
CCOc1cc(C(=O)Nc2ccc(S(=O)(=O)Nc3cc(C)on3)cc2)cc(OCC)c1OCC	–	inconclusive: 23.1 µM [falling, partial curve, poor fit]
O=C(CC1C(=O)NCCN1Cc1cccc(F)c1F)NCCCC1CCCC1 (stereo not given)	inactive: 6.24%	–
Cc1ccc2c(c1)CC(C)N2S(=O)(=O)c1nnc(NC(=O)c2ccccc2F)s1 (stereo not given)	–	inconclusive: 10.3 µM [activator, partial curve, poor fit]
CCCC(=O)Nc1cccc(NC(=O)c2cccc([N+](=O)[O-])c2C)c1	inactive: -2.97%	–
COc1ccc(N(CC(=O)NCCc2ccc(C)cc2)S(=O)(=O)c2c(C)noc2C)cc1	–	active: 23.1 µM
CCOc1ccc(CNC(=O)c2[nH]c3ccccc3c2Sc2ccc(C)cc2)cc1	–	inconclusive: 16.4 µM [falling, partial curve, poor fit]
CCOc1cc(/C=C(\C#N)C(=O)Nc2ccccn2)ccc1O	inactive: 0.544%	–
O=C(NCc1ccc2c(c1)OCO2)Nc1ccc2ccccc2c1	–	inconclusive: 16.4 µM [falling, partial curve, poor fit]

5 compounds already listed, arranged by length of the SMILES, largest number first:
SMILES	activity change, negative = inhibition	Potency
COc1cccc(NC(=O)CSCn2nnc3c(=O)[nH]c(Cc4ccc(F)cc4)nc32)c1	inactive: 0.116%	–
COc1ccc(/C=C2\SC(=S)N(CCC(=O)NCCCN3CCOCC3)C2=O)cc1	–	inconclusive: 20.6 µM [activator, single point]
O=C(Nc1ccc(F)cc1F)c1csc(-c2ccccc2)n1	–	inconclusive: 25.9 µM [activator, partial curve, poor fit]
CSc1ccc(C(=O)c2[nH]c(=O)[nH]c2C)cc1	inactive: -1.22%	–
COc1ccccc1NC(=O)c1coc(=O)c(Br)c1	–	inconclusive: 18.4 µM [activator, single point]

Further results:

SMILES	activity change, negative = inhibition	Potency
O=C(NC1CCCCC1)c1ccc(CNc2ccccc2)o1	–	inconclusive: 2.31 µM [falling, partial curve, poor fit]
CCOc1ccc(-c2nc(CSc3nnc(N)s3)cs2)cc1	–	inconclusive: 1.84 µM [activator, partial curve]
Oc1c(C=Nc2ccc(Cl)cn2)sc2ccccc12	–	inconclusive: 1.03 µM [activator, full curve, poor fit]
Cc1ccc(S(=O)(=O)N(CC(=O)N2CCN(c3ccccc3F)CC2)C2CCCCC2)cc1	–	inconclusive: 29.1 µM [falling, single point]
Nc1c(S(=O)(=O)c2ccccc2)c2nc3ccccc3nc2n1C1CC1	–	inconclusive: 4.11 µM [falling, partial curve, poor fit]
Cc1ccc(C(=O)Nc2nc(-c3nnn(-c4cccc(Cl)c4C)c3C)ns2)cc1C	–	inconclusive: 1.16 µM [falling, full curve]
CCOC(=O)C1=C(CN2CCC(C)CC2)NC(=O)NC1c1ccc(Cl)cc1 (stereo not given)	–	inconclusive: 29.1 µM [falling, single point]
Cc1ccc(-n2c(=O)c3c(cnn3C)n(CC(=O)Nc3c(C)cccc3C)c2=O)cc1	inactive: 3.94% [at 9.27 µM]	–
C=Cc1ccc(CSc2nnc(C)n3c2cc2occc23)cc1	–	active: 18.4 µM
CCCCn1c(N)c(N(CC(C)C)C(=O)c2cc(-c3ccc(F)cc3)nc3ccccc23)c(=O)[nH]c1=O	–	inconclusive: 16.4 µM [falling, partial curve, poor fit]
Cc1ccc(C(=O)O/N=C(/c2nonc2N)N(C)C)cc1	–	inconclusive: 11.6 µM [activator, partial curve, poor fit]
CCCCNC(=O)C(Sc1ccccc1)c1ccccc1 (stereo not given)	inactive: -3.74%	–
Cc1cc(N2CCN(C)CC2)nc2ccc(NC(=O)c3ccc4c(c3)OCO4)cc12	–	inconclusive: 29.1 µM [activator, single point]
Cc1cccc(CNC(=O)Cc2ccc(NC(=O)N3CCCCc4ccccc43)cc2)c1	–	inconclusive: 1.3 µM [activator, partial curve, poor fit]
CCOc1ccc(-c2cn3c(n2)sc2cc(C(=O)NCCCN(CC)CC)ccc23)cc1	inactive: 12.2%	–
COc1ccc(CCNC(=O)CCCCn2c(=O)c3ccccc3n(Cc3ccc(Cl)cc3)c2=O)cc1OC	–	inconclusive: 16.4 µM [falling, partial curve, poor fit]
Cn1c(C(=O)N2CCCC(C(=O)NCc3cccs3)C2)cc2sccc21 (stereo not given)	–	inconclusive: 29.1 µM [falling, single point]
Cc1ccc(C(=O)CSc2cnc3ccccc3n2)cc1C	–	inconclusive: 14.6 µM [activator, partial curve]
COc1cccc(C(=O)OCC(=O)c2[nH]c(C)c(C(C)=O)c2C)c1	–	inconclusive: 29.1 µM [falling, partial curve, poor fit]
O=C(Nc1ccc(N2CCCC2)c(Cl)c1)c1ccc([N+](=O)[O-])o1	–	inconclusive: 29.1 µM [falling, single point]
COc1ccc(CCNC(=O)CN2C(=O)NC(Cc3c[nH]c4ccccc34)C2=O)cc1 (stereo not given)	inactive: -5.5%	–
COc1ccc(C(=O)Nc2ccc(C)c(S(=O)(=O)N3CCCCCC3)c2)cc1	–	active: 20.6 µM

SMILES	activity change, negative = inhibition	Potency
Cc1cc(C#N)c(C)n1-c1cc(C(F)(F)F)ccc1N1CCOCC1	–	inconclusive: 0.517 µM [falling, partial curve, poor fit]
Cc1ccccc1Nc1nnc(SCc2cc([N+](=O)[O-])cc3c2OCOC3)s1	–	active: 25.9 µM
O=C(Nc1cccc(F)c1)c1cccc2c1C(=O)N(C1CCCCC1)C2	–	inconclusive: 32.6 µM [falling, single point]
O=C(NC(=S)Nc1ccccc1[N+](=O)[O-])c1ccco1	–	inconclusive: 29.1 µM [activator, single point]
Cc1ccc(Cl)cc1N1CCN(CCCNC(=O)c2nnc(Cc3cccc(Cl)c3)o2)CC1	–	inconclusive: 18.4 µM [falling, single point]
Cc1ccc(/C=N/N=C/c2ccc(C)s2)s1	–	inconclusive: 11.6 µM [activator, partial curve]
COc1cc(NC(=O)COc2cccc3c2OC(C)(C)C3)cc(OC)c1OC	–	active: 10.3 µM
Cc1ccc(N(Cc2cc3ccccc3[nH]c2=O)C(=O)c2cccs2)cc1	–	inconclusive: 18.4 µM [falling, single point]
COc1ccc(C(=O)N2CCCc3ccccc32)cc1Br	inactive: 1.22%	–
Cc1c(C(=O)N2CCCCC2)c(S(=O)(=O)NCc2ccc(F)cc2)c(C)n1C	–	inconclusive: 9.2 µM [falling, partial curve, poor fit]
COc1ccc2oc(=O)c(C(=O)NCc3ccccc3)cc2c1	inactive: 0.403%	–
Cc1ccc2c(CC(=O)N(Cc3ccc(Cl)cc3)Cc3ccco3)coc2c1	–	inconclusive: 29.1 µM [falling, single point]
CCc1cc(C(=O)Nc2nc(-c3ccccn3)cs2)sc1C	–	inconclusive: 16.4 µM [falling, single point]
O=C(C1CCN(S(=O)(=O)c2ccccc2F)CC1)N1CCN(Cc2ccc3c(c2)OCO3)CC1	–	inconclusive: 23.1 µM [falling, partial curve, poor fit]
Cc1ccccc1Nc1cc(C(=O)NCCc2ccc(Cl)cc2)c2ccccc2n1	–	inconclusive: 29.1 µM [falling, single point]
O=C(c1cc2ccccc2o1)N(C1CC1)C1(C(=O)Nc2ccccc2)CCCC1	–	inconclusive: 10.3 µM [falling, partial curve]
COc1cc(C2c3c(oc4ccc(C)cc4c3=O)C(=O)N2Cc2ccccc2)ccc1O (stereo not given)	–	inconclusive: 0.0041 µM [falling, full curve, poor fit]
O=S(=O)(CC(CN1CCCCC1)N1CCCCC1)c1ccccc1 (stereo not given)	–	active: 18.4 µM
CC(CNC(=O)Cn1c(-c2cccs2)cc2ccccc21)c1ccccc1 (stereo not given)	–	inconclusive: 32.6 µM [falling, single point]
CCC(=O)N1CCc2cc(Br)cc(S(=O)(=O)N3CCCC(C(=O)NCc4ccc(OC)cc4)C3)c21 (stereo not given)	–	inconclusive: 13 µM [falling, partial curve, poor fit]
Cc1ccc2nc(-c3ccc(O)c(O)c3)cn2c1	–	inconclusive: 23.1 µM [activator, partial curve]
